In PMC4267777:
Results are given in words; binding and its absence hold for the method and conditions named. Binding calls can cover weak binding; strength is not graded here.

Tests used:
[1] = molecular target: P9/P6 portal complex at the unique vertex of bacteriophage PRD1 (bacteriophage PRD1); assay: cryo-EM structure; mature wt PRD1 virion, purified particles, single particle reconstruction without icosahedral symmetry imposition at 12 Å; crystal structures of P3 and P31 docked; proteins assigned by comparison with procapsid and mutant particles
[2] = molecular target: packaging efficiency factor P6 of bacteriophage PRD1 (bacteriophage PRD1); assay: as above

| Binder | binding [1] | binding [2] |
| --- | --- | --- |
| major capsid protein P3 of bacteriophage PRD1 (protein, UniProt P22535 1-395) MAQVQQLTPAQQAALRNQQAMAANLQARQIVLQQSYPVIQQVETQTFDPANRSVFDVTPANVGIVKGFLVKVTAAITNNHATEAVALTDFGPANLVQRVIYYDPDNQRHTETSGWHLHFVNTAKQGAPFLSSMVTDSPIKYGDVMNVIDAPATIAAGATGELTMYYWVPLAYSETDLTGAVLANVPQSKQRLKLEFANNNTAFAAVGANPLEAIYQGAGAADCEFEEISYTVYQSYLDQLPVGQNGYILPLIDLSTLYNLENSAQAGLTPNVDFVVQYANLYRYLSTIAVFDNGGSFNAGTDINYLSQRTANFSDTRKLDPKTWAAQTRRRIATDFPKGVYYCDNRDKPIYTLQYGNVGFVVNPKTVNQNARLLMGYEYFTSRTELVNAGTISTT | binds |  |
| packaging ATPase P9 of bacteriophage PRD1 (protein, UniProt P27381 1-227) MTIRMPNDRQRILVLGKTGTGKTCAAVWHLSQKDFKRKAWIVLNHKGDDLIDSIEGANHVDLNFRPKKPGLYIYHPIPDVDDAEVTQLLWDIHAMGDIGVYVDEGYMIPNRDPAFQALLTQGRSKKIPMIILSQRPVWLTRFAISESDFFQIFQLGDQRDRQTVQGFVPVDLEKLMQAPVNTVPALKKFHSIYYDVGANNCVIMTPVPTADAVLARFDLGKKRKQTL |  | binds |
